Measurements from the supplement of paper PMC10849652.
The other results are listed elsewhere or left out.

Sequences of proteins named here, by UniProt entry; tags and fusion partners are left off. A change or cut given only in a name is not applied to a line headed by its entry.
UniProt O94782: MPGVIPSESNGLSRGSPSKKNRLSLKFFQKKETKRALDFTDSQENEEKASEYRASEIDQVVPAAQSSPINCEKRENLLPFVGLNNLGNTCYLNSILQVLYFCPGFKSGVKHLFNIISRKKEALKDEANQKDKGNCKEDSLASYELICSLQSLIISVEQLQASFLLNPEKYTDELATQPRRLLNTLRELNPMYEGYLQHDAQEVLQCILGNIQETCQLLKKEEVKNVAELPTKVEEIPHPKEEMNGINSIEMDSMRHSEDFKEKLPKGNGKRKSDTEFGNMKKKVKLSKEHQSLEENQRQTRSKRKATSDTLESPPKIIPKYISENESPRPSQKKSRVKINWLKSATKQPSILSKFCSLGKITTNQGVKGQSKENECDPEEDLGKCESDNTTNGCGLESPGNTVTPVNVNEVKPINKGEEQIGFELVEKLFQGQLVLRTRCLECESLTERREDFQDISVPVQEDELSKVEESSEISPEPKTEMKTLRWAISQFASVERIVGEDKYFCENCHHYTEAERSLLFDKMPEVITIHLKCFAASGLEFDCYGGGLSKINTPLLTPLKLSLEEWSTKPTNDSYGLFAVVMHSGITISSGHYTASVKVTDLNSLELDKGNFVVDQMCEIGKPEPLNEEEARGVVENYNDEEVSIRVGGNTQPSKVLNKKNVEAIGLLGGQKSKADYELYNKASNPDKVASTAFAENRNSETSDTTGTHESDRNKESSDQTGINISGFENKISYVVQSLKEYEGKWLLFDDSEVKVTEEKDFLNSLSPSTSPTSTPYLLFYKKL
UniProt Q08AM6: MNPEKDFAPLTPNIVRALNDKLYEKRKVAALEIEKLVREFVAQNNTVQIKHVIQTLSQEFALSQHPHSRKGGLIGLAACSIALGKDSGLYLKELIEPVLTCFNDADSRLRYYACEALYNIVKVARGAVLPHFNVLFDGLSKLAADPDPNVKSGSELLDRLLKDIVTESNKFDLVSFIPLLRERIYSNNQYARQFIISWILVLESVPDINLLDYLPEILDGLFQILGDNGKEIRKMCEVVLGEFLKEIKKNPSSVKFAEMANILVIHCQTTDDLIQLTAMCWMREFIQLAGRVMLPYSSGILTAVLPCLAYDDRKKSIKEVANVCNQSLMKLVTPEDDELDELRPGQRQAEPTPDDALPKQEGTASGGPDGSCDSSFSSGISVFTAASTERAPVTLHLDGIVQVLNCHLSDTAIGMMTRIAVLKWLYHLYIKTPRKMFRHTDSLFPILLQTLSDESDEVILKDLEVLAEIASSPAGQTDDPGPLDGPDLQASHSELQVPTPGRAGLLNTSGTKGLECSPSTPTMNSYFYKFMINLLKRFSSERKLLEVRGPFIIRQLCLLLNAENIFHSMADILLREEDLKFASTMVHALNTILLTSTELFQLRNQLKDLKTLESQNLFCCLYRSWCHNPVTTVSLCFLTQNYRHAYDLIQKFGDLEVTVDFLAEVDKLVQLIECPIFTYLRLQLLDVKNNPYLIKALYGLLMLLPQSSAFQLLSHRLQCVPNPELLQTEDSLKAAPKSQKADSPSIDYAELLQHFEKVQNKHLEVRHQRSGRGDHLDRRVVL
UniProt Q8TED0: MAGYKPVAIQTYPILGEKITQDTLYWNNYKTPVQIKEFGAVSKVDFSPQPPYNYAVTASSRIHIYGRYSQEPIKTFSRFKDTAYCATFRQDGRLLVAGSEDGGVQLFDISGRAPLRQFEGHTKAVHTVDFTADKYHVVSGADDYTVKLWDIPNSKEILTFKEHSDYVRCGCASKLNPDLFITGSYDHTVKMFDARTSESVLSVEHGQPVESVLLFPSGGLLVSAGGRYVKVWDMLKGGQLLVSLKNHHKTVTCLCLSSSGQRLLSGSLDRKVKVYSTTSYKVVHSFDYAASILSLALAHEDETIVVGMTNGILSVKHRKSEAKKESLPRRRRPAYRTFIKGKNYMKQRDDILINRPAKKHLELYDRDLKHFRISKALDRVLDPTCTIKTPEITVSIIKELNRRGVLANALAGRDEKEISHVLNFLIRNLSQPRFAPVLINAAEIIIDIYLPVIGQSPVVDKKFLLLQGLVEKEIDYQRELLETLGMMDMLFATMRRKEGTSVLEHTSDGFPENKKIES
UniProt Q9BV40: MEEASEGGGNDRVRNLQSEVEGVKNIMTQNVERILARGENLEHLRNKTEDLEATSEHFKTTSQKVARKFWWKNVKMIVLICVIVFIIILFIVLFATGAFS
UniProt P50552: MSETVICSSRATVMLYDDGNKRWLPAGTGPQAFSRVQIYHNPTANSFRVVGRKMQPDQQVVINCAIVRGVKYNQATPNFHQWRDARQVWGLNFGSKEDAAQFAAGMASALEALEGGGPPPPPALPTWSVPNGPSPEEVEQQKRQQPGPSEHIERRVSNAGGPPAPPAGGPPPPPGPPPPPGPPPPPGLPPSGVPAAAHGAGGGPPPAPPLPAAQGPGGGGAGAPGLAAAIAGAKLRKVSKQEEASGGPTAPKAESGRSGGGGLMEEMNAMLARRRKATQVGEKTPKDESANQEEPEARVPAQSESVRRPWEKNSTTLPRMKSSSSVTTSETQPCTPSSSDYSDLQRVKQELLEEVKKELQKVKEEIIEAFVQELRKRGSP
UniProt Q96RL1: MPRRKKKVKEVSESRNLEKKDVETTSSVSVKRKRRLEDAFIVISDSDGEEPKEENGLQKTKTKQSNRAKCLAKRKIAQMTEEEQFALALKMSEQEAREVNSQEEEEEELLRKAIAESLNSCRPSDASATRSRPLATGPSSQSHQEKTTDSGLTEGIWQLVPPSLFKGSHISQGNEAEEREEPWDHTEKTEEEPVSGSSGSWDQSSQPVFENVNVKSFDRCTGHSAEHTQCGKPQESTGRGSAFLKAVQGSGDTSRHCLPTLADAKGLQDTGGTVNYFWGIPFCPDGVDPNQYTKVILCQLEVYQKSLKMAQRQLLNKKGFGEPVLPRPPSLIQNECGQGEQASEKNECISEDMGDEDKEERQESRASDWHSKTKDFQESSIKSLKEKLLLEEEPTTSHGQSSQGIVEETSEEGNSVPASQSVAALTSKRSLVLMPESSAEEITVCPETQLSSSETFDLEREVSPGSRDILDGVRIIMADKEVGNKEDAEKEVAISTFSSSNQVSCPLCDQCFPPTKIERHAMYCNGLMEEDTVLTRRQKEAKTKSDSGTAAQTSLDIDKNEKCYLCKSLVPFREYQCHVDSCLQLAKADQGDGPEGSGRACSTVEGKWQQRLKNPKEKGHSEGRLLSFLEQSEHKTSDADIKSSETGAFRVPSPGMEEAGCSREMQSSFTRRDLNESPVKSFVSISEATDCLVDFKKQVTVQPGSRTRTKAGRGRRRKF
UniProt Q9H3U1: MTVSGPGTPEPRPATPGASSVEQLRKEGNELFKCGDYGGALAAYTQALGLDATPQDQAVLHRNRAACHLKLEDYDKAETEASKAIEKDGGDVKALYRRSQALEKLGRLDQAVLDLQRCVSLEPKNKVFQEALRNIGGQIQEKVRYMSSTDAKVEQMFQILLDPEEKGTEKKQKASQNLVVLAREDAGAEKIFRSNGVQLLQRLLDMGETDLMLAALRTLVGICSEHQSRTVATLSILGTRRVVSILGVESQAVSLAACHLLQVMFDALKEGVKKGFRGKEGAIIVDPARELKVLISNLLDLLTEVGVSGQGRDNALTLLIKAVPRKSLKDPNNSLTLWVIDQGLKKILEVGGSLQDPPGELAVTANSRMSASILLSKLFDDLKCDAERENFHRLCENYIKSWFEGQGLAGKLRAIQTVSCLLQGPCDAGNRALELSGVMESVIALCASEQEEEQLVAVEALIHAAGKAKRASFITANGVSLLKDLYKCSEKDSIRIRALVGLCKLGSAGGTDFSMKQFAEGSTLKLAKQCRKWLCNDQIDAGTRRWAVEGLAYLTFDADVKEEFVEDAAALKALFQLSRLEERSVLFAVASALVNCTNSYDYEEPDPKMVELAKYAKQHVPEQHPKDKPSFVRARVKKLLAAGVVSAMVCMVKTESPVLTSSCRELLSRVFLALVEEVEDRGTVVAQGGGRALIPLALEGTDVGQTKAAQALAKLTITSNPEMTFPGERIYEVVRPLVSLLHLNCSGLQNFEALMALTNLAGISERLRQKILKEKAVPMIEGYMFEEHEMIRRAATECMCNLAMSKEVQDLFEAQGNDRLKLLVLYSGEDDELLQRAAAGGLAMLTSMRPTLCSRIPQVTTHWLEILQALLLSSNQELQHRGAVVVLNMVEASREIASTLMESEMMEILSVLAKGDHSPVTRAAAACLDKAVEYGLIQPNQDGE
UniProt O94763, whole entry, looked up: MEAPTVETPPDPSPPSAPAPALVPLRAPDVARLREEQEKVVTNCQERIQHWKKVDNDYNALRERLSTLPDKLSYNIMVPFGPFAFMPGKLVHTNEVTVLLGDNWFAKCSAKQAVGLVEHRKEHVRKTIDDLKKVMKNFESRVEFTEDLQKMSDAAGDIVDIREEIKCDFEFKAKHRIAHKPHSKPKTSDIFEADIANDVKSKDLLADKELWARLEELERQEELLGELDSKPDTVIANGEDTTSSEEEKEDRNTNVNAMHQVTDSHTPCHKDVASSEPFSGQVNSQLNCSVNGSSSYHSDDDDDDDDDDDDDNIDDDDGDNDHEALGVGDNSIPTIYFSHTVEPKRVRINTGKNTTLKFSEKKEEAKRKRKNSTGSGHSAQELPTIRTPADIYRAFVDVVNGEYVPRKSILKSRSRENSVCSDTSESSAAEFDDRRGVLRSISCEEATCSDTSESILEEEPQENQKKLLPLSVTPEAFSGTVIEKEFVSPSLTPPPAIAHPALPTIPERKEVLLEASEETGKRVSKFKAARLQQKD
UniProt O14949: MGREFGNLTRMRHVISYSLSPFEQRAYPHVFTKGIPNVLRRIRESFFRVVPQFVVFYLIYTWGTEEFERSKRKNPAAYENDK
UniProt Q8N806: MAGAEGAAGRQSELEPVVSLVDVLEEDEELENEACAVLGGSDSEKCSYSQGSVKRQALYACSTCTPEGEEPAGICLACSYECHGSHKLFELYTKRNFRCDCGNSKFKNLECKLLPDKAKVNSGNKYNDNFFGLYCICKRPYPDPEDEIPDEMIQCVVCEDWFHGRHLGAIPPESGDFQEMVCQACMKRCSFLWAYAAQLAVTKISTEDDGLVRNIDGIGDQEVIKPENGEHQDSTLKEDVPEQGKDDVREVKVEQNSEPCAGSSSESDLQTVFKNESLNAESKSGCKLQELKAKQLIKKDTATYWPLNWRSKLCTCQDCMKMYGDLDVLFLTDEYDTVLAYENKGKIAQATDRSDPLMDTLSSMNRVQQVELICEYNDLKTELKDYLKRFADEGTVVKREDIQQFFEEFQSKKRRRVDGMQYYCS
UniProt Q9Y3C8: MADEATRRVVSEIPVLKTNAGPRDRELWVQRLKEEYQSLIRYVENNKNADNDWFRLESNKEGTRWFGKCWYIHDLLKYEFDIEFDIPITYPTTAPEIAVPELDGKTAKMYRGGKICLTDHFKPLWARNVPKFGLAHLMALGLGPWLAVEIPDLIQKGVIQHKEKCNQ
UniProt P10746: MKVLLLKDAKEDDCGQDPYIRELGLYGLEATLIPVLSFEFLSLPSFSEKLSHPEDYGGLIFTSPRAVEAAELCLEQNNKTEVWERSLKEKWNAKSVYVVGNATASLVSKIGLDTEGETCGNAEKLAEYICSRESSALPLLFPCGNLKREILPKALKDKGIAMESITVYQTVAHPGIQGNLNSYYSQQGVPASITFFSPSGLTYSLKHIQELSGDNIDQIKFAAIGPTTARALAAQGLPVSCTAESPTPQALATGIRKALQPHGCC
UniProt Q96S82: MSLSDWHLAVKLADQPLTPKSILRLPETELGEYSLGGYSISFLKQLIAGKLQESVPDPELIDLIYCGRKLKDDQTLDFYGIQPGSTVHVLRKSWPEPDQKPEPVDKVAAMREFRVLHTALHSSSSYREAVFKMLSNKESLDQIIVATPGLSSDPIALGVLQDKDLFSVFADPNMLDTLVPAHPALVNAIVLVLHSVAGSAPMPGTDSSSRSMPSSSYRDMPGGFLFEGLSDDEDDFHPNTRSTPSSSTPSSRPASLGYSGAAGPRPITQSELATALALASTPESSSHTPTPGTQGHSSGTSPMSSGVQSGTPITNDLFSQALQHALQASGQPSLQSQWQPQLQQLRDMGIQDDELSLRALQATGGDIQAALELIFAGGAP
UniProt Q70CQ3: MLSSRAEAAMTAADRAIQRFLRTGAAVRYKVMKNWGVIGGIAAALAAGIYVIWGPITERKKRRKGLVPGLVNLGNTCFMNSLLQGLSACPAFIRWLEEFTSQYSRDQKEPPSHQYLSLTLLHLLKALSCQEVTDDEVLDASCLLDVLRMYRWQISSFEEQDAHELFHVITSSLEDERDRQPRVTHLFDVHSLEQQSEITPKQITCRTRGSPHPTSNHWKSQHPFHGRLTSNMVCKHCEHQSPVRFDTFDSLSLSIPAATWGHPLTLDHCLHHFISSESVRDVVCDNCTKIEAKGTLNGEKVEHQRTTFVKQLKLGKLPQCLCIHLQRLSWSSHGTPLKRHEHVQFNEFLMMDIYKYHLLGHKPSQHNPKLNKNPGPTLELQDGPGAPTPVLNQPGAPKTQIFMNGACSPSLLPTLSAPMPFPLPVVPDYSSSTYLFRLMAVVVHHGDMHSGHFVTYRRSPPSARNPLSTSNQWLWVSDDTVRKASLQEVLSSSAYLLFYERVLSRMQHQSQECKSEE

These targets were tested with C1=CC(=CC=C1C2=NC3=C(N2)C=C(C=C3)C(=O)N)OC4=CC=C(C=C4)Cl (assay: log2 fold change, soluble protein after heating vs DMSO (PISA); higher = thermal stabilisation; K562 cells, 10 uM, 30 min; active = over 0.2 and 3.5 SD of the protein, either way, in both replicates (recomputed)).
Outline: (§1)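 K562 cells (2×10^6 cells/mL) were treated with 10 μM compound for 30 min, and aliquots were heated for 3 min over 48°C-58°C. Pooled aliquots were extracted in PBS with 0.5% NP-40 at 4°C, and the supernatant after 21,000xg for 90 min was measured by TMTpro 16plex LC-MS/MS with channel sums equalised. Reported thermal stability, relative to control samples and from duplicates, is a log2 fold change.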

log2 fold change, inactive:
UBQLN2 (UniProt Q9UHD9) -0.013
UQCC1 (UniProt Q9NVA1) 0
USP1 (UniProt O94782) 0.17
UCK1 (UniProt Q9HA47) -0.013
UCHL3 (UniProt P15374) -0.005
VAC14 (UniProt Q08AM6) 0.033
UTP15 (UniProt Q8TED0) 0.077
VAMP8 (UniProt Q9BV40) 0.002
VASP (UniProt P50552) -0.046
URGCP (UniProt Q8TCY9) 0.025
UBL5 (UniProt Q9BZL1) 0.044
UIMC1 (UniProt Q96RL1) 0.044
USP47 (UniProt Q96K76) 0.034
UNC13D isoform 3 (UniProt Q70J99) -0.028
UNC45A (UniProt Q9H3U1) -0.008
UVRAG (UniProt Q9P2Y5) -0.007
URI1 isoform 4 (UniProt O94763) 0.01
VAMP4 (UniProt O75379) -0.031
UQCRQ (UniProt O14949) 0.026
UBR7 (UniProt Q8N806) -0.021
UPF1 (UniProt Q92900) -0.003
UFC1 (UniProt Q9Y3C8) -0.053
UBE3C (UniProt Q15386) 0.005
UBXN4 (UniProt Q92575) 0.024
VAMP2 (UniProt P63027) -0.034
UCK2 (UniProt Q9BZX2) -0.029
VAPA (UniProt Q9P0L0) -0.064
UGGT2 (UniProt Q9NYU1) -0.025
UROS (UniProt P10746) -0.046
USP16 (UniProt Q9Y5T5) 0.004
UPF2 (UniProt Q9HAU5) 0.038
USE1 (UniProt Q9NZ43) 0.078
UBL7 (UniProt Q96S82) -0.006
UROD (UniProt P06132) 0.014
UQCRFS1 (UniProt P47985) -0.005
URI1 (UniProt O94763) 0.041
USP10 isoform 2 (UniProt Q14694) 0.034
USP30 (UniProt Q70CQ3) -0.102
UBFD1 (UniProt O14562) 0.007

These targets were tested with C1=CC2=C(C=CC(=C2)/C=C\3/C(=O)NC(=NCC4=CC=CS4)S3)N=C1 in the same assay as above.
Outline: as §1

log2 fold change, inactive:
UBQLN2 (UniProt Q9UHD9) -0.008
UQCC1 (UniProt Q9NVA1) -0.034
USP1 (UniProt O94782) 0.11
UCK1 (UniProt Q9HA47) 0.005
UCHL3 (UniProt P15374) 0.017
VAC14 (UniProt Q08AM6) 0.018
UTP15 (UniProt Q8TED0) -0.057
VAMP8 (UniProt Q9BV40) -0.091
VASP (UniProt P50552) 0.139
URGCP (UniProt Q8TCY9) 0.076
UBL5 (UniProt Q9BZL1) -0.096
UIMC1 (UniProt Q96RL1) 0.001
USP47 (UniProt Q96K76) 0.039
UNC13D isoform 3 (UniProt Q70J99) 0
UNC45A (UniProt Q9H3U1) 0.039
UVRAG (UniProt Q9P2Y5) 0.044
URI1 isoform 4 (UniProt O94763) 0.037
VAMP4 (UniProt O75379) 0
UQCRQ (UniProt O14949) 0.045
UBR7 (UniProt Q8N806) 0.039
UPF1 (UniProt Q92900) 0.016
UFC1 (UniProt Q9Y3C8) -0.034
UBE3C (UniProt Q15386) 0.038
UBXN4 (UniProt Q92575) 0.01
VAMP2 (UniProt P63027) -0.125
UCK2 (UniProt Q9BZX2) -0.006
VAPA (UniProt Q9P0L0) -0.017
UGGT2 (UniProt Q9NYU1) 0.166
UROS (UniProt P10746) -0.075
USP16 (UniProt Q9Y5T5) 0.143
UPF2 (UniProt Q9HAU5) -0.007
USE1 (UniProt Q9NZ43) 0.062
UBL7 (UniProt Q96S82) 0.103
UROD (UniProt P06132) -0.068
UQCRFS1 (UniProt P47985) -0.069
URI1 (UniProt O94763) 0.033
USP10 isoform 2 (UniProt Q14694) 0.003
USP30 (UniProt Q70CQ3) 0.253
UBFD1 (UniProt O14562) -0.012
